From PubChem BioAssay AID188 (DTP/NCI, 2004) come the findings set out here.

The mice bore no tumour; each value counts animals alive of those treated. Survivors were counted at the toxicity check, usually on the fifth day, unless a day is given; later deaths do not show. Schedule codes are those of the source, read here as Q, the interval in days (D) or hours (H), X, the number of doses.

The subject of the experiment is CD2F1 mice, nontumored, toxicity/survival. The experiment in a line: NCI In Vivo Anticancer Drug Screen. Data for tumor model Nontumored Animals (Toxicity Test) in CD2F1 (CDF1) mice. To be noted: vehicle: saline.

In the case of `OCC(O)C(O)C(O)C(O)CO` (stereo not drawn), the survivor count runs as follows: (dose: 0.63 mg/kg/injection, schedule: Q01DX009 (ip)) 8 of 8; (dose: 1.25 mg/kg/injection, schedule: Q01DX009 (ip)) 8 of 8; (dose: 2.5 mg/kg/injection, schedule: Q01DX009 (ip)) 8 of 8; (dose: 5.0 mg/kg/injection, schedule: Q01DX009 (ip)) 8 of 8; (dose: 10.0 mg/kg/injection, schedule: Q01DX009 (ip)) 8 of 8; (dose: 20.0 mg/kg/injection, schedule: Q01DX009 (ip)) 8 of 8. In addition, where the note is “dose: 40.0 mg/kg/injection, schedule: Q01DX009 (ip)”, the survivor count is reported as 8 of 8.
Regarding `Nc1ncnc2c1ncn2C1OC(CO)C(O)C1O` (stereo not drawn), under “dose: 80.0 mg/kg/injection, schedule: Q03HX016 (ip)”, the survivor count was 0 of 5.
